Measured values from paper PMC6387362.
Results are given in words; binding and its absence hold for the method and conditions named. Binding seen in cells or lysates may run through a third protein. Some results given as binding are weak or reduced against the parent protein; the word gives no strength. Sequences can lack the tags named with a protein.

Protein sequences, listed by entry. Tags and fused reporters are not part of them. Lines headed by an entry give the natural chain unless they say otherwise; changes in a name come on top. Residues count along the entry.
UniProt Q9WUD2, residues 337-761: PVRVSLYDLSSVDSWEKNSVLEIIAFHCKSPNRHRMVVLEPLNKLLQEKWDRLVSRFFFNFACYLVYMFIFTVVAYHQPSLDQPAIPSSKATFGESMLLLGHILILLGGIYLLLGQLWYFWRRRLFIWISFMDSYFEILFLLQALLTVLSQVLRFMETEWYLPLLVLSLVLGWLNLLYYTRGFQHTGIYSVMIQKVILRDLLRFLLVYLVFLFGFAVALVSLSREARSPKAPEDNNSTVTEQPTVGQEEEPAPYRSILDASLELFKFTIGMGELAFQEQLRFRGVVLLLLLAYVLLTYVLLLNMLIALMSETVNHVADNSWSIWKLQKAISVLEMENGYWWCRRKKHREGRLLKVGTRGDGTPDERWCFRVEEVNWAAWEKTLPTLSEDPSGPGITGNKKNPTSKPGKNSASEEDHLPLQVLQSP

Target: T1, Snapin c-myc-tagged (UniProt O95295)
T1 sequence: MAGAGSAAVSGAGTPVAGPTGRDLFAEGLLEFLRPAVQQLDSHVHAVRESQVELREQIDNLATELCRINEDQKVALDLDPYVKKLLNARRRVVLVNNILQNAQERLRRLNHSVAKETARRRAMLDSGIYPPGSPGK
Experiment: co-IP; HEK293 cells transfected with ΔARD-TRPV2-GFP and c-myc-tagged Snapin or Synaptotagmin-IX; lysate (50 mM Tris-HCl pH 7.4, 150 mM NaCl, 2 mM EDTA, 1% Triton, 5% glycerol) incubated overnight at 4 °C with anti-MYC antibody, then sepharose beads; control without antibody; immunoblot

binding: binds
Substance: ΔARD-TRPV2-GFP (Δ1-336 rat TRPV2) (from UniProt Q9WUD2 337-761) (domain or fragment)
